Results: paper doi:10.1101/2022.11.28.518246

Biological target: iRhom2_ΔIRHD (human) (UniProt Q6PJF5)
Experiment: co-IP

binding: binds
B1: SEC11A-Myc-FLAG (enzyme, UniProt P67812 1-179)
chain: MLSLDFLDDVRRMNKRQLYYQVLNFGMIVSSALMIWKGLMVITGSESPIVVVLSGSMEPAFHRGDLLFLTNRVEDPIRVGEIVVFRIEGREIPIVHRVLKIHEKQNGHIKFLTKGDNNAVDDRGLYKQGQHWLEKKDVVGRARGFVPYIGIVTILMNDYPKFKYAVLFLLGLFVLVHRE

No constants are given. Whether binding was seen depends on the method and setting. In cells and extracts the contact can be indirect. Binding can be weak; no strength is given. Where a sequence is shown, tags or fusion partners need not be part of it.
